At least one compound was matched to its structure with a doubt left.
Tested on: NARCOTIC ANTAGONISM
Test: narcotic antagonism (Table IV)
Format: in vivo
Conditions: I.P.
Procedure: The compounds of this invention were tested for their ability to antagonize narcotic analgesics by two different tests. […] Another test used for narcotic antagonist activity was published by Harris & Pearson. This test is modification of the D'Amour & Smith method.
In the original method the time required for rats to flick their tails following application of a heat stimulus is taken as a measure of analgesic potency.

Compound	NARCOTIC ANTAGONISM
NC(=O)c1ccccc1N(CCN1CCC(O)(c2ccccc2)CC1)Cc1ccccc1 [Example XXVII (Step 4 Title Compound), 2-[Benzyl-(2-[4-hydroxy-4-phenylpiperidyl]ethyl)amino]benzamide]	Negative
CCC(=O)OC1(c2ccccc2)CCN(CCNc2ccccc2C(N)=O)CC1 [Example XXVII, 2-[2-(4-propionoxy-4-phenylpiperidyl)ethylamino]benzamide]	Negative
CCC(=O)OC1(c2ccccc2)CCN(CCNc2ccccc2C(=O)NC)CC1 [XXIX, 2-[2-(4-Propionoxy-4-phenylpiperidyl)ethylamino]-N-methyl-benzamide]	Negative
CCC(=O)OC1(c2ccccc2)CCN(CCN(Cc2ccccc2)c2ccccc2C(=O)NC)CC1 [XXVIII, 2-[Benzyl-(2-[4-propionoxy-4-phenylpiperidyl]ethyl)amino]-N-methyl-benzamide]	Negative

From patent US4060526A, “1-Heterocyclic alkyl-1,2,3,4-tetrahydroquinazolinones and analgesic intermediates thereof” (priority 1976, dated 1977)
